# These are yes or no findings as the source states them, for the method shown. Some entries that bind do so weakly or less than the wild type.
# Chains of the proteins cited; added tags and fusions are not shown. Lines headed by an entry give the natural chain unless they say otherwise; changes in a name come on top.
# UniProt P23510: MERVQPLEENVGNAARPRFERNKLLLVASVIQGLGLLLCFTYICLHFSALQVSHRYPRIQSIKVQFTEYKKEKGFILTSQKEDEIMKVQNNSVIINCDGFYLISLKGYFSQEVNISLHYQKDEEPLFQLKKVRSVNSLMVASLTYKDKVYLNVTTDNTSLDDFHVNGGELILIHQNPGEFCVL
# Legend:
# [1] = target: hOX40L on hOX40L-expressing CHO cells (human) (UniProt P23510); assay: flow cytometry on hOX40L-expressing CHO cells, titrated antibody detected with fluorophore-labeled goat anti-human IgG, gMFI
# [2] = target: biotinylated hOX40L (human) (UniProt P23510); assay: competition ELISA: biotinylated hOX40L preincubated with titrated antibody, added to plates coated with hOX40-Fc (the blocked partner), bound hOX40L detected with Extravidin-HRP
binder,measurement,setting,value
"positive control based on the sequences of the anti-hOX40L antibody amlitelimab (antibody, IgG4, V domains shown) VH: EVQLVESGGGLVQPGGSLRLSCAASGFTFSNYAMNWVRQAPGKGLEWVSTISGSGGATRYADSVKGRFTISRDNSRNTVYLQMNSLRVEDTAVFYCTKDRLIMATVRGPYYYGMDVWGQGTTVTVSS VL: DIQMTQSPSSLSASVGDRVTITCRASQSISSYLNWYQQKPGKAPNLLIYAASSLQSGVPSRFSGSGSETDFTLTISSLQPEDFATYYCQQSHSVSFTFGPGTKVDIK",binding,[1],binds
same,binding,[2],binds
